Results from paper PMC4363627.
Results are given in words; binding and its absence hold for the method and conditions named. Binding seen in cells or lysates may run through a third protein. Some results given as binding are weak or reduced against the parent protein; the word gives no strength. For some assays here: Tags and fused reporters may be left off the sequences shown.

Protein sequences, listed by entry. Tags and fused reporters are not part of them.
UniProt Q9UKB1: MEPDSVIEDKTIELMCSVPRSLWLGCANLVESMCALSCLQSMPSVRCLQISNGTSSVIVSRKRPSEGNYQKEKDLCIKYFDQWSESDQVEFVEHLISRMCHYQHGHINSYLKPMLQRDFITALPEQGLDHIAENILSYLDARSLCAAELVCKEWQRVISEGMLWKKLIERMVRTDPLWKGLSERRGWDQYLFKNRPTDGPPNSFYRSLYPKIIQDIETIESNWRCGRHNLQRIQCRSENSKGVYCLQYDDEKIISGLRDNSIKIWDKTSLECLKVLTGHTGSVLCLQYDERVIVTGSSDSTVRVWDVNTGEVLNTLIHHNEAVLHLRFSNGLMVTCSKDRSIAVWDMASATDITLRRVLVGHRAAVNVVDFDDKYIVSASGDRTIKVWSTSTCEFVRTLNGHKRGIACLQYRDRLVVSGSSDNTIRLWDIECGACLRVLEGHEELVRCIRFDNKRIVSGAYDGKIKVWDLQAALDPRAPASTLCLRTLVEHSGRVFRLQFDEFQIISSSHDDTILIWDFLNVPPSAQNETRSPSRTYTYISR

Columns and labels:
[1] = biological target: 3X-Flag-tagged Hendra virus matrix protein (transfected HEK 293T) (Hendra virus) (UniProt O89341); experiment: co-IP
[2] = biological target: T1, 3X-Flag-tagged Sendai virus matrix protein (transfected HEK 293T) (Sendai virus) (UniProt P06446); experiment: co-IP
T1 sequence: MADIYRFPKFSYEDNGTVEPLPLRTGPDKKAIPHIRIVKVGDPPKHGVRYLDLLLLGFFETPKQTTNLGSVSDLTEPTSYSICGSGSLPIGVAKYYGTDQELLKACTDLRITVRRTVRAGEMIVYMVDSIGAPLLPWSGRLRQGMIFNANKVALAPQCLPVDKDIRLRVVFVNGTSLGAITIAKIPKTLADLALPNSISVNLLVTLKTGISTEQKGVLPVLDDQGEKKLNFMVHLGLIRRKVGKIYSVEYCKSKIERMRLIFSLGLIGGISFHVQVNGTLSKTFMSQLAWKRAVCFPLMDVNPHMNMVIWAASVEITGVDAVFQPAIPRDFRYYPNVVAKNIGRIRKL

“Cul1 adaptor FBXW11 (from UniProt Q9UKB1 1-542)” was tested, and the binding [1] was “binds” and the binding [2] was “no binding”.
